{"sequences": {"note": "Chains of the proteins cited; added tags and fusions are not shown.", "UniProt P05412, whole entry": "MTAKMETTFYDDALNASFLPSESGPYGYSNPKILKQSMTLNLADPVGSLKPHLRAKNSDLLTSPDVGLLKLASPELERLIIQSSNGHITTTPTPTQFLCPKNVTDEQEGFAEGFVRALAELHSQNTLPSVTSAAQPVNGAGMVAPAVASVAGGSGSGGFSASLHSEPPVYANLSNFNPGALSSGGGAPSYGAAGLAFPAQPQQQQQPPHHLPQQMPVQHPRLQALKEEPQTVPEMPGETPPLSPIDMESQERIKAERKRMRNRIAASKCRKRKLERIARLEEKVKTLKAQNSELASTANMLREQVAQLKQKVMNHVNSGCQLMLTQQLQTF"}, "source": "patent EP4847020A1", "about": "“USE OF SMALL MOLECULE COMPOUND IN TREATMENT OF CARDIOVASCULAR DISEASES” (dated 2026)", "key": {"[1]": {"target": "c-Jun/AP-1 (Homo sapiens, UniProt P05412)", "test": "TransAM kit test of c-Jun transcription factor binding activity to DNA", "conditions": "remaining binding of c-Jun to dsDNA; lower binding activity = stronger inhibition; drugs tested at 500-31.25 µM, concentration of the tabulated value not stated", "description": "The binding ability of DNA to transcription factor was tested using TransAM kits (Active Motif 46096). The transcription factor was c-Jun/AP-1. Drugs at final concentrations of 500 µM, 250 µM, 125 µM, 62.5 µM, and 31.25 µM, along with 1 µL of cell extract containing the transcription factor, were sequentially added to a 96-well plate pre-coated with double-stranded DNA oligonucleotides. After incubation for 1 hour, the plate was incubated with an antibody against the c-JUN transcription factor. The absorbance at 450 nm was measured, with absorbance at 655 nm used as background. The binding activity of the dsDNA sequence to the transcription factor was measured. Lower binding activity indicates stronger inhibitory activity of compound."}, "[2]": {"test_system": "JUN transcription", "test": "Dual-luciferase reporter assay (pGL4.44[luc2P/AP1 RE/Hygro]) in PMA-stimulated 293T cells, inhibition of transcriptional activity", "conditions": "for Luc: PMA 10 ng/ml, PMA alone = 100.0%", "description": "293T cells were passaged at a ratio of 1:3, plated, and incubated for 24 hours. The medium was replaced with antibiotic-free medium Opti-MEM (Gibco, 11058021). The 293T cells were transiently transfected with the luciferase reporter plasmid pGL4.44[luc2P/AP1 RE/Hygro] (Promega E411) and cultured for 24 hours. The cells were incubated for 1 hour in 1% PS/10% FBS/DMEM (Gibco, 11965092) containing the drugs at final concentrations of 50 µM, 25 µM, 12.5 µM, and 6.25 µM. Subsequently, the cells were stimulated with PMA (final concentration 10 ng/ml) (Sigma, 79346-5MG) and cultured for 34 hours. Lysates were measured using the Dual-Luciferase Reporter Assay System (Promega). Both the drugs and PMA were prepared as stock solutions in DMSO, diluted with culture medium, and added to the culture."}, "[3]": {"test_system": "HFpEF animal model", "test": "HFpEF mouse model (HFD + L-NAME), Example 2: therapeutic efficacy", "conditions": "12 mg/kg per administration, every other day; 3-week point after the administration", "description": "The materials and reagents, animal experiment guidelines, and induction of heart failure with preserved ejection fraction model were the same as in Example 1.\nThe administration method was as follows: After successful induction of the animal model, the model treatment group was treated with the compounds of the present invention (e.g., compounds T3, T5, T8 to T16) or T-5224. The model control group was treated with the drug-free vehicle as a control. Mice fed normally with food and water throughout the induction period served as the negative control. After the mice were raised to 5 to 8 weeks of age, drug treatment was initiated following echocardiography and Doppler imaging confirmation of successful model establishment. For the treatment groups, T3, T5, T8 to T16, and T-5224 were administered at a dose of 12 mg/kg per administration based on mouse body weight. Specifically, the compounds were administered every other day. Each time, 0.54 mg of the compound was dissolved in 100 µL of 0.5% PVP solution (in practice, the drug solution was prepared based on the number of mice. For example, for 14 mice, 8 mg of the compound was dissolved in 1.5 mL of solution, and each mouse received 100 µL of the solution). Drug treatment was initiated after successful model induction. The control group received an equal volume of 0.5% PVP solution, with all other treatments being the same."}, "[4]": {"test_system": "Jun", "test": "Jun expression in cardiomyocytes isolated from HFpEF model mice, quantitative PCR", "conditions": "mouse cardiomyocytes, model treatment group compared with model control group; total dose 250 mg/kg", "description": "In order to isolate cardiomyocytes from the heart of adult mice, we used the classic perfusion method to isolate cardiomyocytes. Specifically, mice were injected with 100 µl of sodium heparin (1000 units in 50 ml) 20 minutes before being killed to prevent heart coagulation during the operation, which increased the difficulty of digestion. After that, the mice were anesthetized and killed, and the hearts were removed and transferred to a calcium-free solution for washing. Then, the Langendorff method was used for digestion. The heart was perfused with a calcium-free solution for 5 minutes using a Langendorff apparatus, and then digested with digestive enzyme solution (0.7 mg/ml type II collagenase and 0.7 mg/ml bovine serum albumin in a calcium-free solution) for about 30 minutes. The heart was constantly touched at about 20 minutes. […]\nTotal RNA was extracted from cells using GeneJet RNA purification kit (Thermo Scientific, K0732), and 0.1µg of total RNA was reverse transcribed using iScript TM cDNA synthesis kit (Bio-Rad, 1708890) to generate cDNA. qPCR was performed using iTaqUniversl SYBR Green supermix (1725121, Bio-Rad) on ABI Vii7 real-time system (Life Technologies, Q6), and b-Actin was used for standardized quantitative analysis. […]"}, "[5]": {"test_system": "HFpEF animal model", "test": "HFpEF mouse model (HFD + L-NAME), Example 1: echocardiography/Doppler imaging and body weight", "conditions": "total dose 250 mg/kg, vs model control", "text": "Male C57BL/6N wild-type mice aged 8 to 10 weeks were divided into three groups, namely, normal group (normal diet and drinking water), model control group (high-fat diet combined with administration of N-nitro-L-arginine methyl ester) and model treatment group (high-fat diet combined with administration of N-nitro-L-arginine methyl ester and treatment with T-5224). Among them, the model control group and the model treatment group were modeled by the following literature: Gabriele G. Schiattarella et al., Nitrosative stress drives heart failure with preserved ejection fraction, https://doi.org/10.1038/s41586-019-1100-z. Specifically, heart failure with preserved ejection fraction was induced by a high-fat diet (HFD) (60% kcal, from fat (lard)) and N-nitro-L-arginine methyl ester (abbreviated as L-NAME, 0.5 g/L in drinking water) to obtain the HFpEF animal model. […]\nAll the mice were raised under different conditions for five weeks and then began to undergo conventional echocardiography and Doppler imaging, which was performed every two weeks until the end of the 15th week. […] All parameters were measured at least 3 times, and the mean values were provided. […]"}}, "note": "Structures were worked out from names or drawings and are uncertain.", "data": [{"smiles": "COCn1oc2cc(COc3ccc(C(=O)c4ccc(OC5CCCC5)cc4O)cc3CCC(=O)OC)ccc2c1=O", "values": [{"measurement": "DNA Binding Activity (%)", "setting": "[1]", "result": 81.0, "unit": "%"}]}, {"smiles": "CCOC(=O)CCc1cc(C(=O)c2ccc(OC3CCCC3)cc2O)ccc1OCc1ccc2c(O)noc2c1", "values": [{"measurement": "Luc", "setting": "[2]; 6.25 µM", "result": 85.2, "unit": "%"}, {"measurement": "Luc", "setting": "[2]; 12.5 µM", "result": 73.5, "unit": "%"}, {"measurement": "Luc", "setting": "[2]; 25 µM", "result": 63.2, "unit": "%"}, {"measurement": "Luc", "setting": "[2]; 50 µM", "result": 11.6, "unit": "%"}, {"measurement": "activity in inhibiting JUN transcription (in words)", "setting": "[2]; AP1 luciferase reporter", "result": "showed activity in inhibiting JUN transcription"}, {"measurement": "DNA Binding Activity (%)", "setting": "[1]", "result": 4.5, "unit": "%"}, {"measurement": "inhibitory effect on disease progression", "setting": "[3]", "result": "significantly inhibited disease progression"}]}, {"smiles": "O=C(O)CCc1cc(C(=O)c2ccc(OC3CCCC3)cc2O)ccc1OCc1ccc2c(O)noc2c1", "values": [{"measurement": "expression of Jun", "setting": "[4]", "result": "down-regulated"}, {"measurement": "Luc", "setting": "[2]; 6.25 µM", "result": 92.3, "unit": "%"}, {"measurement": "Luc", "setting": "[2]; 12.5 µM", "result": 75.7, "unit": "%"}, {"measurement": "Luc", "setting": "[2]; 25 µM", "result": 102.6, "unit": "%"}, {"measurement": "Luc", "setting": "[2]; 50 µM", "result": 75.5, "unit": "%"}, {"measurement": "diastolic function", "setting": "[5]; HFD + 0.5g/L L-NAME mice, every other day from 5th to 13th week, maintained until the 15th week", "result": "significantly improved"}, {"measurement": "mouse obesity (body weight)", "setting": "[5]; HFD + L-NAME mice", "result": "improved"}, {"measurement": "DNA Binding Activity (%)", "setting": "[1]", "result": 10.0, "unit": "%"}, {"measurement": "inhibitory effect on disease progression", "setting": "[3]", "result": "had not yet shown any inhibitory effect on disease progression"}]}]}
